These results are taken from publication PMC6756898.

Sequences of proteins named here, by UniProt entry; tags and fusion partners are left off. Residues count along the entry.
UniProt P01137, residues 30-390: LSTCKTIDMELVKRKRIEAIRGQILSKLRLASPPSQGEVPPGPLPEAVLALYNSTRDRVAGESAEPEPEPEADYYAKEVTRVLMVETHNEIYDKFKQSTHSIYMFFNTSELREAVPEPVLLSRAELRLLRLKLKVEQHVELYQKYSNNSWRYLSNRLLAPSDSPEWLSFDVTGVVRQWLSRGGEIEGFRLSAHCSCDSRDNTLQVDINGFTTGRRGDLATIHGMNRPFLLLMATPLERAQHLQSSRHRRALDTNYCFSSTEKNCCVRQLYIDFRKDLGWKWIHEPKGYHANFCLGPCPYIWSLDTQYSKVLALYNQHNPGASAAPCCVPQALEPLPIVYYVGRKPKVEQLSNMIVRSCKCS
UniProt P42263, residues 29-894: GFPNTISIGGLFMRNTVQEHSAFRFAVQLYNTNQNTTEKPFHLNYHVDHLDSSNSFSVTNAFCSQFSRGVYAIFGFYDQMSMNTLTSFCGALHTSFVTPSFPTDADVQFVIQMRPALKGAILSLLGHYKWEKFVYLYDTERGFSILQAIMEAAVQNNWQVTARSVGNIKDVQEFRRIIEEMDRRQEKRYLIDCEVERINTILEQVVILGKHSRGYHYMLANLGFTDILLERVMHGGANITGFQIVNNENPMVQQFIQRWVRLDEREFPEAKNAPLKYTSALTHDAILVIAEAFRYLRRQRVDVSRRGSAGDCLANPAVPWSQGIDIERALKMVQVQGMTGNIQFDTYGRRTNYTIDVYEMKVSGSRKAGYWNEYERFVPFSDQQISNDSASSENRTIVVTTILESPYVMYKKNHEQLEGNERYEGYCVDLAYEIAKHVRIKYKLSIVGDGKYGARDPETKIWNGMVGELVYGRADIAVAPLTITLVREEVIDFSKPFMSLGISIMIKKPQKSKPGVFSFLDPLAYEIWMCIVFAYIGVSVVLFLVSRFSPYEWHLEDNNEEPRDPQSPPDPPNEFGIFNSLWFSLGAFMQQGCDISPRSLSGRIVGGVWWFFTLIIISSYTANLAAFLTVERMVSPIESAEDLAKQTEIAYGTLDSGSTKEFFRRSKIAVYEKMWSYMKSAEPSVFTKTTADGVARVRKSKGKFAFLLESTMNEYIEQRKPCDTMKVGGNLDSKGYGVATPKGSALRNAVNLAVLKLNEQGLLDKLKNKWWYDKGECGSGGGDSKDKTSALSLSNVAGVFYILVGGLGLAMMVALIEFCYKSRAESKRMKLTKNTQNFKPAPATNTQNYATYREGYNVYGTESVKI

The target of this test is TGF-β1 (human (endogenous in HCC827)) (UniProt P01137). Put plainly: co-IP; endogenous proteins in HCC827 cells; co-IP and Western blotting; which protein was precipitated is not told.

Results are given in words; binding and its absence hold for the method and conditions named. Binding seen in cells or lysates may run through a third protein. Some binding calls cover weakened binding; strength is not graded here.

Turning to GRIA3 (from UniProt P42263 29-894), the binding result is on record as “binds”.
